HELM strings list residues between dots; [ac] is acetyl, [am] amide, other brackets name non-standard units.
Test: peptide synthesis
Details: late stage modification step

Question: Which step yield does the source give for “PEPTIDE1{[Glm].T.R.S.L.[DR1Tyr].V}$PEPTIDE1,PEPTIDE1,7:R2-2:R3$$$V2.0” here?
Answer: Its step yield is 44%.
